The supplement of paper PMC8728848
The list shows a part of the results.

Columns and labels:
Experiment in all cases: glycan array binding signal (z-score within array); higher = stronger binding
Details in all cases: glycan notation: IUPAC condensed, linker removed
Glc(b1-4)Glc = molecular target: Glc(b1-4)Glc
Procedure, shortened: (§1)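 Glycan array binding is given as a within-array Z-score, which can be read as non-binding when negative. The arrays, 3228 of them, came from the Consortium for Functional Glycomics database and were retained only where the protein sequence was available. Z-scores were averaged across arrays of the same protein sequence at different concentrations or buffers and across linkers.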

Glc(b1-6)Glc = molecular target: Glc(b1-6)Glc
Procedure, shortened: as §1

GlcA(b1-3)Gal = molecular target: GlcA(b1-3)Gal
Procedure, shortened: as §1

GlcA(b1-3)GlcNAc = molecular target: GlcA(b1-3)GlcNAc
Procedure, shortened: as §1

GlcA(b1-6)Gal = molecular target: GlcA(b1-6)Gal
Procedure, shortened: as §1

[1] = molecular target: GlcA3S(b1-3)Gal(b1-4)GlcNAc(b1-2)Man
Procedure, shortened: as §1

[2] = molecular target: GlcA3S(b1-3)Gal(b1-4)GlcNAc(b1-3)Gal(b1-4)Glc
Procedure, shortened: as §1

[3] = molecular target: GlcNAc(a1-3)Gal(b1-4)GlcNAc
Procedure, shortened: as §1

[4] = molecular target: GlcNAc(a1-4)Gal(b1-3)GlcNAc
Procedure, shortened: as §1

[5] = molecular target: GlcNAc(a1-4)Gal(b1-4)GalNAc
Procedure, shortened: as §1

[6] = molecular target: GlcNAc(a1-4)Gal(b1-4)GlcNAc
Procedure, shortened: as §1

[7] = molecular target: GlcNAc(a1-4)Gal(b1-4)GlcNAc(b1-3)Gal(b1-4)Glc
Procedure, shortened: as §1

[8] = molecular target: GlcNAc(a1-4)Gal(b1-4)GlcNAc(b1-3)Gal(b1-4)GlcNAc
Procedure, shortened: as §1

[9] = molecular target: GlcNAc(a1-4)Gal(b1-4)GlcNAc(b1-3)Gal(b1-4)GlcNAc(b1-3)Gal(b1-4)GlcNAc
Procedure, shortened: as §1

[10] = molecular target: GlcNAc(a1-4)Gal(b1-4)GlcNAc(b1-3)Gal(b1-4)[Fuc(a1-3)]GlcNAc(b1-3)Gal(b1-4)[Fuc(a1-3)]GlcNAc
Procedure, shortened: as §1

[11] = molecular target: GlcNAc(a1-6)Gal(b1-4)GlcNAc
Procedure, shortened: as §1

[12] = molecular target: GlcNAc(b1-2)Gal(b1-3)GalNAc
Procedure, shortened: as §1

[13] = molecular target: GlcNAc(b1-2)Man(a1-3)[GlcNAc(b1-2)Man(a1-6)]Man(b1-4)GlcNAc(b1-4)GlcNAc
Procedure, shortened: as §1

[14] = molecular target: GlcNAc(b1-2)Man(a1-3)[GlcNAc(b1-2)Man(a1-6)]Man(b1-4)GlcNAc(b1-4)[Fuc(a1-6)]GlcNAc
Procedure, shortened: as §1

[15] = molecular target: GlcNAc(b1-2)Man(a1-3)[GlcNAc(b1-4)][GlcNAc(b1-2)Man(a1-6)]Man(b1-4)GlcNAc(b1-4)GlcNAc
Procedure, shortened: as §1

[16] = molecular target: GlcNAc(b1-2)Man(a1-3)[GlcNAc(b1-4)][GlcNAc(b1-2)Man(a1-6)]Man(b1-4)GlcNAc(b1-4)[Fuc(a1-6)]GlcNAc
Procedure, shortened: as §1

[17] = molecular target: GlcNAc(b1-2)[GlcNAc(b1-4)]Man(a1-3)[GlcNAc(b1-2)Man(a1-6)]Man(b1-4)GlcNAc(b1-4)GlcNAc
Procedure, shortened: as §1

[18] = molecular target: GlcNAc(b1-2)[GlcNAc(b1-4)]Man(a1-3)[GlcNAc(b1-4)][GlcNAc(b1-2)Man(a1-6)]Man(b1-4)GlcNAc(b1-4)GlcNAc
Procedure, shortened: as §1

[19] = molecular target: GlcNAc(b1-2)[GlcNAc(b1-4)]Man(a1-3)[GlcNAc(b1-4)][GlcNAc(b1-2)[GlcNAc(b1-6)]Man(a1-6)]Man(b1-4)GlcNAc(b1-4)GlcNAc
Procedure, shortened: as §1

[20] = molecular target: GlcNAc(b1-2)[GlcNAc(b1-4)]Man(a1-3)[GlcNAc(b1-4)][GlcNAc(b1-2)[GlcNAc(b1-6)]Man(a1-6)]Man(b1-4)GlcNAc(b1-4)[Fuc(a1-6)]GlcNAc
Procedure, shortened: as §1

[21] = molecular target: GlcNAc(b1-2)[GlcNAc(b1-6)]Man(a1-6)[GlcNAc(b1-2)Man(a1-3)]Man(b1-4)GlcNAc(b1-4)GlcNAc
Procedure, shortened: as §1

[22] = molecular target: GlcNAc(b1-2)[GlcNAc(b1-6)]Man(a1-6)[GlcNAc(b1-2)Man(a1-3)]Man(b1-4)GlcNAc(b1-4)[Fuc(a1-6)]GlcNAc
Procedure, shortened: as §1

[23] = molecular target: GlcNAc(b1-2)[GlcNAc(b1-6)]Man(a1-6)[GlcNAc(b1-4)][GlcNAc(b1-2)Man(a1-3)]Man(b1-4)GlcNAc(b1-4)GlcNAc
Procedure, shortened: as §1

GlcNAc(b1-3)Fuc = molecular target: GlcNAc(b1-3)Fuc
Procedure, shortened: as §1

GlcNAc(b1-3)Gal = molecular target: GlcNAc(b1-3)Gal
Procedure, shortened: as §1

[24] = molecular target: GlcNAc(b1-3)Gal(b1-3)GalNAc
Procedure, shortened: as §1

GlcNAc(b1-3)Gal(b1-4)Glc = molecular target: GlcNAc(b1-3)Gal(b1-4)Glc
Procedure, shortened: as §1

[25] = molecular target: GlcNAc(b1-3)Gal(b1-4)GlcNAc
Procedure, shortened: as §1

[26] = molecular target: GlcNAc(b1-3)Gal(b1-4)GlcNAc(b1-2)Man(a1-3)[GlcNAc(b1-3)Gal(b1-4)GlcNAc(b1-2)Man(a1-6)]Man(b1-4)GlcNAc(b1-4)GlcNAc
Procedure, shortened: as §1

[27] = molecular target: GlcNAc(b1-3)Gal(b1-4)GlcNAc(b1-2)Man(a1-3)[GlcNAc(b1-3)Gal(b1-4)GlcNAc(b1-2)Man(a1-6)]Man(b1-4)GlcNAc(b1-4)[Fuc(a1-6)]GlcNAc
Procedure, shortened: as §1

[28] = molecular target: GlcNAc(b1-3)Gal(b1-4)GlcNAc(b1-2)[GlcNAc(b1-3)Gal(b1-4)GlcNAc(b1-6)]Man(a1-6)[GlcNAc(b1-3)Gal(b1-4)GlcNAc(b1-2)Man(a1-3)]Man(b1-4)GlcNAc(b1-4)GlcNAc
Procedure, shortened: as §1

[29] = molecular target: GlcNAc(b1-3)Gal(b1-4)GlcNAc(b1-3)Gal(b1-4)GlcNAc
Procedure, shortened: as §1

[30] = molecular target: GlcNAc(b1-3)Gal(b1-4)GlcNAc(b1-3)Gal(b1-4)GlcNAc(b1-2)Man(a1-3)[GlcNAc(b1-3)Gal(b1-4)GlcNAc(b1-3)Gal(b1-4)GlcNAc(b1-2)Man(a1-6)]Man(b1-4)GlcNAc(b1-4)GlcNAc
Procedure, shortened: as §1

[31] = molecular target: GlcNAc(b1-3)Gal(b1-4)GlcNAc(b1-3)Gal(b1-4)GlcNAc(b1-2)Man(a1-3)[GlcNAc(b1-3)Gal(b1-4)GlcNAc(b1-3)Gal(b1-4)GlcNAc(b1-2)Man(a1-6)]Man(b1-4)GlcNAc(b1-4)[Fuc(a1-6)]GlcNAc
Procedure, shortened: as §1

[32] = molecular target: GlcNAc(b1-3)Gal(b1-4)GlcNAc(b1-3)Gal(b1-4)GlcNAc(b1-2)[GlcNAc(b1-3)Gal(b1-4)GlcNAc(b1-3)Gal(b1-4)GlcNAc(b1-6)]Man(a1-6)[GlcNAc(b1-3)Gal(b1-4)GlcNAc(b1-3)Gal(b1-4)GlcNAc(b1-2)Man(a1-3)]Man(b1-4)GlcNAc(b1-4)[Fuc(a1-6)]GlcNAc
Procedure, shortened: as §1

[33] = molecular target: GlcNAc(b1-3)Gal(b1-4)GlcNAc(b1-3)Gal(b1-4)GlcNAc(b1-3)Gal(b1-4)GlcNAc(b1-2)Man(a1-3)[GlcNAc(b1-3)Gal(b1-4)GlcNAc(b1-3)Gal(b1-4)GlcNAc(b1-3)Gal(b1-4)GlcNAc(b1-2)Man(a1-6)]Man(b1-4)GlcNAc(b1-4)GlcNAc
Procedure, shortened: as §1

[34] = molecular target: GlcNAc(b1-3)Gal(b1-4)GlcNAc(b1-3)Gal(b1-4)GlcNAc(b1-3)Gal(b1-4)GlcNAc(b1-2)Man(a1-3)[GlcNAc(b1-3)Gal(b1-4)GlcNAc(b1-3)Gal(b1-4)GlcNAc(b1-3)Gal(b1-4)GlcNAc(b1-2)Man(a1-6)]Man(b1-4)GlcNAc(b1-4)[Fuc(a1-6)]GlcNAc
Procedure, shortened: as §1

[35] = molecular target: GlcNAc(b1-3)Gal(b1-4)GlcNAc(b1-3)Gal(b1-4)GlcNAc(b1-3)Gal(b1-4)GlcNAc(b1-2)[GlcNAc(b1-3)Gal(b1-4)GlcNAc(b1-3)Gal(b1-4)GlcNAc(b1-3)Gal(b1-4)GlcNAc(b1-6)]Man(a1-6)[GlcNAc(b1-3)Gal(b1-4)GlcNAc(b1-3)Gal(b1-4)GlcNAc(b1-3)Gal(b1-4)GlcNAc(b1-2)Man(a1-3)]Man(b1-4)GlcNAc(b1-4)[Fuc(a1-6)]GlcNAc
Procedure, shortened: as §1

[36] = molecular target: GlcNAc(b1-3)Gal(b1-4)GlcNAc(b1-3)Gal(b1-4)GlcNAc(b1-3)Gal(b1-4)GlcNAc(b1-3)Gal(b1-4)GlcNAc(b1-2)Man(a1-3)[GlcNAc(b1-3)Gal(b1-4)GlcNAc(b1-3)Gal(b1-4)GlcNAc(b1-3)Gal(b1-4)GlcNAc(b1-3)Gal(b1-4)GlcNAc(b1-2)Man(a1-6)]Man(b1-4)GlcNAc(b1-4)GlcNAc
Procedure, shortened: as §1

[37] = molecular target: GlcNAc(b1-3)Gal(b1-4)GlcNAc(b1-3)Gal(b1-4)GlcNAc(b1-3)Gal(b1-4)GlcNAc(b1-3)Gal(b1-4)GlcNAc(b1-2)Man(a1-3)[GlcNAc(b1-3)Gal(b1-4)GlcNAc(b1-3)Gal(b1-4)GlcNAc(b1-3)Gal(b1-4)GlcNAc(b1-3)Gal(b1-4)GlcNAc(b1-2)Man(a1-6)]Man(b1-4)GlcNAc(b1-4)[Fuc(a1-6)]GlcNAc
Procedure, shortened: as §1

B1: SUN4 (Saccharomyces cerevisiae), P53616 (protein)
chain: MGSSHHHHHHSSGLVPRGSHNGSIYGDLADFSGPYEKFEDGTIPCGQFPSGQGVIPISWLDEGGWSGVENTDTSTGGSCKEGSYCSYACQPGMSKTQWPSDQPSDGRSIGGLLCKDGYLYRSNTDTDYLCEWGVDAAYVVSELSNDVAICRTDYPGTENMVIPTYVQAGDSLPLTVVDQDTYYTWQGLKTSAQYYVNNAGISVEDACVWGSSSSGVGNWAPLNFGAGSSDGVAYLSLIPNPNNGNALNFNVKIVAADDSSTVNGECIYENGSFSGGSDGCTVSVTAGKAKFVLYN
For B1, the “glycan array binding signal (z-score)” value (Glc(b1-4)Glc) was -0.935, the “glycan array binding signal (z-score)” value (Glc(b1-6)Glc) was -0.514 and the “glycan array binding signal (z-score)” value (GlcA(b1-3)Gal) was -0.039. The “glycan array binding signal (z-score)” value (GlcA(b1-3)GlcNAc) was -0.127, the “glycan array binding signal (z-score)” value (GlcA(b1-6)Gal) was -0.052 and the “glycan array binding signal (z-score)” value [1] was 0.305. For the same binder, the “glycan array binding signal (z-score)” value [2] was 0.251, the “glycan array binding signal (z-score)” value [3] was 0.414 and the “glycan array binding signal (z-score)” value [4] was 0.416. For the same binder, the “glycan array binding signal (z-score)” value [5] was 0.779, the “glycan array binding signal (z-score)” value [6] was -0.265 and the “glycan array binding signal (z-score)” value [7] was 0.55. The “glycan array binding signal (z-score)” value [8] was 0.697, the “glycan array binding signal (z-score)” value [9] was 0.098 and the “glycan array binding signal (z-score)” value [10] was 1.28. For the same binder, the “glycan array binding signal (z-score)” value [11] was -1.15, the “glycan array binding signal (z-score)” value [12] was 0.963 and the “glycan array binding signal (z-score)” value [13] was 0.264. The “glycan array binding signal (z-score)” value [14] was -0.619, the “glycan array binding signal (z-score)” value [15] was -1.38 and the “glycan array binding signal (z-score)” value [16] was -0.555. The “glycan array binding signal (z-score)” value [17] was 0.022, the “glycan array binding signal (z-score)” value [18] was -0.295 and the “glycan array binding signal (z-score)” value [19] was -0.107. For the same binder, the “glycan array binding signal (z-score)” value [20] was -0.237, the “glycan array binding signal (z-score)” value [21] was -0.666 and the “glycan array binding signal (z-score)” value [22] was 0.117. The “glycan array binding signal (z-score)” value [23] was -0.641, the “glycan array binding signal (z-score)” value (GlcNAc(b1-3)Fuc) was -0.064 and the “glycan array binding signal (z-score)” value (GlcNAc(b1-3)Gal) was -0.944. For the same binder, the “glycan array binding signal (z-score)” value [24] was 0.821, the “glycan array binding signal (z-score)” value (GlcNAc(b1-3)Gal(b1-4)Glc) was 0.018 and the “glycan array binding signal (z-score)” value [25] was 0.156. For the same binder, the “glycan array binding signal (z-score)” value [26] was -0.456, the “glycan array binding signal (z-score)” value [27] was 1.07 and the “glycan array binding signal (z-score)” value [28] was 0.82. For the same binder, the “glycan array binding signal (z-score)” value [29] was 0.244, the “glycan array binding signal (z-score)” value [30] was 0.121 and the “glycan array binding signal (z-score)” value [31] was 1.34. For the same binder, the “glycan array binding signal (z-score)” value [32] was 1.97, the “glycan array binding signal (z-score)” value [33] was 0.425 and the “glycan array binding signal (z-score)” value [34] was 0.823. The “glycan array binding signal (z-score)” value [35] was 1.86, the “glycan array binding signal (z-score)” value [36] was 0.735 and the “glycan array binding signal (z-score)” value [37] was 0.211.
